Read-outs that look alike come from different tables or passages of the source. No constants are given. Whether binding was seen depends on the method and setting. In cells and extracts the contact can be indirect. These calls come from enrichment with a bait or labelling near it, and not all partners need be listed.
Experiments:
[1] = molecular target: full‐length (FL) BAG3 (BCL2‐associated athanogenic protein 3), FLAG‐tagged (UniProt O95817); assay: affinity purification with mass spectrometry; FLAG‐Trap (DYKDDDDK Fab‐Trap) agarose pull‐down of FLAG‐tagged FL BAG3 from lysates (modified RIPA buffer, diluted) of U251 BAG3‐KO cells, cultured adherent (DMEM) or as spheres (Neurobasal‐A) for 72 h; 1 h at 4°C; compared with empty vector; label‐free LC–MS, triplicates; cut‐off Log2FC >1, −log10 p‐value >1.3
[2] = molecular target: full‐length (FL) BAG3 (BCL2‐associated athanogenic protein 3), FLAG‐tagged (UniProt O95817); assay: as above; remark: listed apart in the source

The chains behind the UniProt entries cited, without tags or fusion partners.
UniProt O95817: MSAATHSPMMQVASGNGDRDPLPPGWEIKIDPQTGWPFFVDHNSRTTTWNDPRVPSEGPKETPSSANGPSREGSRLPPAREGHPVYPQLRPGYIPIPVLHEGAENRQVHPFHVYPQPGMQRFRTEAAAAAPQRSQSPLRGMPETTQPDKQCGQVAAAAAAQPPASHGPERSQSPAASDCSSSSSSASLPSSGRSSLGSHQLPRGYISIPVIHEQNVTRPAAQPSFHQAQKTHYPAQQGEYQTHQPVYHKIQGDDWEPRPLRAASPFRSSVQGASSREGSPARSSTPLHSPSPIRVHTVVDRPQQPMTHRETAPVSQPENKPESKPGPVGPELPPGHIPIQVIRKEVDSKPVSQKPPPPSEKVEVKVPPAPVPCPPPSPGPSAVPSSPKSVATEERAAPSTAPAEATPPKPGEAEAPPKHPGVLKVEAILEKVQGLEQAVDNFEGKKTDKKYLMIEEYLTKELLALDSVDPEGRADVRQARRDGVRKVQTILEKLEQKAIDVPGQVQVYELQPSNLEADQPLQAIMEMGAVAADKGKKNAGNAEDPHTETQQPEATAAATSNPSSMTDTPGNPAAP
UniProt P48681: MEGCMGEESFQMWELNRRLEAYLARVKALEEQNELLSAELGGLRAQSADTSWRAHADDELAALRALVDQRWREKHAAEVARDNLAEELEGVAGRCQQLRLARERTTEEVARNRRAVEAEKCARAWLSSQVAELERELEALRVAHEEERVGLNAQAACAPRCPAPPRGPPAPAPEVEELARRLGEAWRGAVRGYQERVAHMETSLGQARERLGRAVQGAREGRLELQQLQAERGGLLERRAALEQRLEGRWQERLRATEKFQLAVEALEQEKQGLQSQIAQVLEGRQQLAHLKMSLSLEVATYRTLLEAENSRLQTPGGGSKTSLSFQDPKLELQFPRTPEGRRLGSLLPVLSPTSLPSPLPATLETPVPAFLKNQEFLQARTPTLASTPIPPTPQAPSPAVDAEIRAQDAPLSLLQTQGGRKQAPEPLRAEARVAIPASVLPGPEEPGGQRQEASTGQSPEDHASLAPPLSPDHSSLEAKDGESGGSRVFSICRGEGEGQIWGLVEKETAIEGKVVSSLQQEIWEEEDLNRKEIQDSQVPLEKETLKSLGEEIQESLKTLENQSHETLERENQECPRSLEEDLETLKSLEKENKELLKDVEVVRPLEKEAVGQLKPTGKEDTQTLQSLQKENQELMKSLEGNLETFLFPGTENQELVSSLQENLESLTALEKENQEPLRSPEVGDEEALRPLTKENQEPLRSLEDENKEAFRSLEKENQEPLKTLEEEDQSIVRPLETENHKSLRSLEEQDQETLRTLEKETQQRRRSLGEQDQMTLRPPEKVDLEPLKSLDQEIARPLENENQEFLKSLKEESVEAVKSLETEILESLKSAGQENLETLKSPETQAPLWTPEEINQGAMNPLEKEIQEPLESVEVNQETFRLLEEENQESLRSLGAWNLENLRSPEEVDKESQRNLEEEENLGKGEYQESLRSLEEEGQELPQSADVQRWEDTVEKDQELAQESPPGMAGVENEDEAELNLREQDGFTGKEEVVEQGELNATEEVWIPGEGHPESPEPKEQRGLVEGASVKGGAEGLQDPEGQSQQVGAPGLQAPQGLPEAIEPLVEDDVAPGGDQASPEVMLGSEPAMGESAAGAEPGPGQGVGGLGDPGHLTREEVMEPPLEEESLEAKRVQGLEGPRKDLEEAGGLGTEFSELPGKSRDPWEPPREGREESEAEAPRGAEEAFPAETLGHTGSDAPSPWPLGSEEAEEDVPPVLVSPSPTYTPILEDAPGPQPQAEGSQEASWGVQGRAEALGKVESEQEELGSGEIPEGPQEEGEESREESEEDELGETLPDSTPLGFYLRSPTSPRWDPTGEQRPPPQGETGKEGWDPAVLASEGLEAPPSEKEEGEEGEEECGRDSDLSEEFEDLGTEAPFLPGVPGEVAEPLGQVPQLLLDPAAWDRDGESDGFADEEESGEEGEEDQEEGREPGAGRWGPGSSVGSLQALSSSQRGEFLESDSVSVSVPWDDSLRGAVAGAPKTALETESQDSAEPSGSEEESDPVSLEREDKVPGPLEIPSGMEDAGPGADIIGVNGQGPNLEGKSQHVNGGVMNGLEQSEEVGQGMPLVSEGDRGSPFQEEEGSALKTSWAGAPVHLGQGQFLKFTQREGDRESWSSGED
UniProt P08670: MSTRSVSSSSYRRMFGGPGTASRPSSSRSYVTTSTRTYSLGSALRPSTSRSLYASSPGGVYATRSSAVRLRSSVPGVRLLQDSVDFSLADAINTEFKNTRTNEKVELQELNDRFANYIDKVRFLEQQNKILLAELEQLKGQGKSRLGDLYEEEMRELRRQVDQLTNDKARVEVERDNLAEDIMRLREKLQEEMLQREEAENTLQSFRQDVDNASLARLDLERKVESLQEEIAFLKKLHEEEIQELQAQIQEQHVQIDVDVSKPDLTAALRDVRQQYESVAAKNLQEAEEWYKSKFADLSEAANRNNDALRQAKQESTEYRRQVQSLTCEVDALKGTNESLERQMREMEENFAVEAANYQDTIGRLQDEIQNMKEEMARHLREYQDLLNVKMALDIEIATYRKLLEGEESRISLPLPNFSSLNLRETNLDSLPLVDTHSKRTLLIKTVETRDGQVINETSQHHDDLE
UniProt P48431: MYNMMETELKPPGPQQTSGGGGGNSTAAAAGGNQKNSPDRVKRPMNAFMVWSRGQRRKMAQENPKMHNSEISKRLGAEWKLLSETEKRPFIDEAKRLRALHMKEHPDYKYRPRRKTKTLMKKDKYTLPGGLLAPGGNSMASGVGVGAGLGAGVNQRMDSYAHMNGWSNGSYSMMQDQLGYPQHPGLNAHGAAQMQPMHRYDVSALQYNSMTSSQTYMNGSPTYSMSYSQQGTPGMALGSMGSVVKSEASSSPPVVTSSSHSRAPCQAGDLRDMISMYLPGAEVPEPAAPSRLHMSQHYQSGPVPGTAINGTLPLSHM
UniProt P36405: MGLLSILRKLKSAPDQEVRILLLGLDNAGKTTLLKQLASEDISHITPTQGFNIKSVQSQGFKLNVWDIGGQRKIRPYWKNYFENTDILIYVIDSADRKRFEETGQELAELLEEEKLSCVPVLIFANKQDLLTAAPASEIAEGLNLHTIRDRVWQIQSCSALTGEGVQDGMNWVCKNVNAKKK
UniProt P35579: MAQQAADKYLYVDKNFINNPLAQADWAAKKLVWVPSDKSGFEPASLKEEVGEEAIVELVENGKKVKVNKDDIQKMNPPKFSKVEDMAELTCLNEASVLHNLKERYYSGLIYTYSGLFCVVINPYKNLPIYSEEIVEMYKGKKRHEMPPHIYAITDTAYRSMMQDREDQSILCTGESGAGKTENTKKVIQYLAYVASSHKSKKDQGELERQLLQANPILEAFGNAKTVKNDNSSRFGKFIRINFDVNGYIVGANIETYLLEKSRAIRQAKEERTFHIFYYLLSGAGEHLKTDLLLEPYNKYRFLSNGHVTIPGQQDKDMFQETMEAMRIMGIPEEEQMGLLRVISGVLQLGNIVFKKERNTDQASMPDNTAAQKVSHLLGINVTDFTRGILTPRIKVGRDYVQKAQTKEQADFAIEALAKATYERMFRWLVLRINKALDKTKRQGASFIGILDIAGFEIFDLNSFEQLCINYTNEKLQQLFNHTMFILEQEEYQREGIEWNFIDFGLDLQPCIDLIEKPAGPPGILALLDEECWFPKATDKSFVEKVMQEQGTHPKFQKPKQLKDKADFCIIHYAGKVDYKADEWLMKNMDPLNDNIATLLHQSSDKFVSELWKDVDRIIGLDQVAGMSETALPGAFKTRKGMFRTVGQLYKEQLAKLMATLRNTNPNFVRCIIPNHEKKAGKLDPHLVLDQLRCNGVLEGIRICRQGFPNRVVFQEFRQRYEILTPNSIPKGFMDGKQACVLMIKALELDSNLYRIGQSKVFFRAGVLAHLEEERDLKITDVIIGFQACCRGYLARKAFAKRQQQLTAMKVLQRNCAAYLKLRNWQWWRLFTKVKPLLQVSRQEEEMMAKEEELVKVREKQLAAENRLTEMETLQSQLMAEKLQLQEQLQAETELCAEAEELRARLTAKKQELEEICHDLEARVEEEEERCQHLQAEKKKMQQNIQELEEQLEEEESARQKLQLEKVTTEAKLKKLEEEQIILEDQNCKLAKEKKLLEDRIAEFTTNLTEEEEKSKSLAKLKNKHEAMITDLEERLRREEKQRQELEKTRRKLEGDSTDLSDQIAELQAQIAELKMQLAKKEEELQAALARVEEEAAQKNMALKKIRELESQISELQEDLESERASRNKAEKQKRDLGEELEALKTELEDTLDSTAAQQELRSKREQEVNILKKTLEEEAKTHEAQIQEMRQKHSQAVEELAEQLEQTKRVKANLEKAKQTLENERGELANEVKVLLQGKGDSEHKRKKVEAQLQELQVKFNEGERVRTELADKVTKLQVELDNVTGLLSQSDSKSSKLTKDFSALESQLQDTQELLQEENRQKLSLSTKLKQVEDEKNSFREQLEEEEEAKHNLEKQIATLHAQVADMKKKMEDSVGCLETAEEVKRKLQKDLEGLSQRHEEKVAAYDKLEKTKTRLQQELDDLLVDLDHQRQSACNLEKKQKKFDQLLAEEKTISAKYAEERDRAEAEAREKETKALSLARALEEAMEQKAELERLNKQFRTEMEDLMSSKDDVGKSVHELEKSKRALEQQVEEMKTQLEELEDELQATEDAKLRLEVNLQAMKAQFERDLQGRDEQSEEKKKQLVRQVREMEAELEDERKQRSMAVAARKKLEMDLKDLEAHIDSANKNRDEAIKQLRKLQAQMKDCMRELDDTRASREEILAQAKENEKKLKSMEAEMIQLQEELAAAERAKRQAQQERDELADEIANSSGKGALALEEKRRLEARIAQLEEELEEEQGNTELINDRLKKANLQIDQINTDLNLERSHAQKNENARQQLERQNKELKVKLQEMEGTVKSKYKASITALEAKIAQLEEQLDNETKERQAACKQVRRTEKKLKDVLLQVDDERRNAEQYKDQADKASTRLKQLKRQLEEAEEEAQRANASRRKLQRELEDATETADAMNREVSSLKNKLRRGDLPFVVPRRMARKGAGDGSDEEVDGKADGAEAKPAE

Row | Molecule | binding [1] | binding [2]
1 | Nestin (NES) (from UniProt P48681 1-1621) | binds | –
2 | Vimentin (VIM) (from UniProt P08670 1-466) | binds | –
3 | sex‐determining region Y‐Box 2 (SOX2) (from UniProt P48431 1-317) | binds | –

More lines, now with the values ahead:

Row | binding [1] | binding [2] | Molecule
4 | binds | – | ADP‐ribosylation factor‐like protein 3 (ARL3) (from UniProt P36405 1-182)
5 | binds | – | Myosin heavy chain 9 (MYH9) (from UniProt P35579 1-1960)
6 | – | binds | heat shock protein family B Member 8 (HSPB8) (protein, UniProt Q9UJY1 1-196) MADGQMPFSCHYPSRLRRDPFRDSPLSSRLLDDGFGMDPFPDDLTASWPDWALPRLSSAWPGTLRSGMVPRGPTATARFGVPAEGRTPPPFPGEPWKVCVNVHSFKPEELMVKTKDGYVEVSGKHEEKQQEGGIVSKNFTKKIQLPAEVDPVTVFASLSPEGLLIIEAPQVPPYSTFGESSFNNELPQDSQEVTCT
